Publication PMC12780945
No constants are given. Whether binding was seen depends on the method and setting. Binding seen in cells or lysates may run through a third protein. Some binding calls cover weakened binding; strength is not graded here.

Chains of the proteins cited; added tags and fusions are not shown.
UniProt Q9Y6M1: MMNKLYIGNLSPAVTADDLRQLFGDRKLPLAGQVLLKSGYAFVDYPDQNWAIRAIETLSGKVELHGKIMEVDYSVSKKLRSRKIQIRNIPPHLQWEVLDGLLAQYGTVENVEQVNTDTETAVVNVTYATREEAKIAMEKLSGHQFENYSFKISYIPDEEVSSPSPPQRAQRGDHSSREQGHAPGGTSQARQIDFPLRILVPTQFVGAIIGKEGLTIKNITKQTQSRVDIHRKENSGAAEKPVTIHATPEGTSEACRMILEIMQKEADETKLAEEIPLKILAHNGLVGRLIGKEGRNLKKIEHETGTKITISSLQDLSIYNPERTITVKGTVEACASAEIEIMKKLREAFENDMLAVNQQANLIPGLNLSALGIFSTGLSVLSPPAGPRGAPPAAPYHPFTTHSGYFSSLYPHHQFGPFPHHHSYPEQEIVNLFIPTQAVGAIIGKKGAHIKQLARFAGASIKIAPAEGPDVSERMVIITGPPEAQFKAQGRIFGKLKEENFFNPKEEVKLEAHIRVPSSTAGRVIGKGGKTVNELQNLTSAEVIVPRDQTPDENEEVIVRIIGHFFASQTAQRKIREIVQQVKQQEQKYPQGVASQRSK
UniProt A5YKK6: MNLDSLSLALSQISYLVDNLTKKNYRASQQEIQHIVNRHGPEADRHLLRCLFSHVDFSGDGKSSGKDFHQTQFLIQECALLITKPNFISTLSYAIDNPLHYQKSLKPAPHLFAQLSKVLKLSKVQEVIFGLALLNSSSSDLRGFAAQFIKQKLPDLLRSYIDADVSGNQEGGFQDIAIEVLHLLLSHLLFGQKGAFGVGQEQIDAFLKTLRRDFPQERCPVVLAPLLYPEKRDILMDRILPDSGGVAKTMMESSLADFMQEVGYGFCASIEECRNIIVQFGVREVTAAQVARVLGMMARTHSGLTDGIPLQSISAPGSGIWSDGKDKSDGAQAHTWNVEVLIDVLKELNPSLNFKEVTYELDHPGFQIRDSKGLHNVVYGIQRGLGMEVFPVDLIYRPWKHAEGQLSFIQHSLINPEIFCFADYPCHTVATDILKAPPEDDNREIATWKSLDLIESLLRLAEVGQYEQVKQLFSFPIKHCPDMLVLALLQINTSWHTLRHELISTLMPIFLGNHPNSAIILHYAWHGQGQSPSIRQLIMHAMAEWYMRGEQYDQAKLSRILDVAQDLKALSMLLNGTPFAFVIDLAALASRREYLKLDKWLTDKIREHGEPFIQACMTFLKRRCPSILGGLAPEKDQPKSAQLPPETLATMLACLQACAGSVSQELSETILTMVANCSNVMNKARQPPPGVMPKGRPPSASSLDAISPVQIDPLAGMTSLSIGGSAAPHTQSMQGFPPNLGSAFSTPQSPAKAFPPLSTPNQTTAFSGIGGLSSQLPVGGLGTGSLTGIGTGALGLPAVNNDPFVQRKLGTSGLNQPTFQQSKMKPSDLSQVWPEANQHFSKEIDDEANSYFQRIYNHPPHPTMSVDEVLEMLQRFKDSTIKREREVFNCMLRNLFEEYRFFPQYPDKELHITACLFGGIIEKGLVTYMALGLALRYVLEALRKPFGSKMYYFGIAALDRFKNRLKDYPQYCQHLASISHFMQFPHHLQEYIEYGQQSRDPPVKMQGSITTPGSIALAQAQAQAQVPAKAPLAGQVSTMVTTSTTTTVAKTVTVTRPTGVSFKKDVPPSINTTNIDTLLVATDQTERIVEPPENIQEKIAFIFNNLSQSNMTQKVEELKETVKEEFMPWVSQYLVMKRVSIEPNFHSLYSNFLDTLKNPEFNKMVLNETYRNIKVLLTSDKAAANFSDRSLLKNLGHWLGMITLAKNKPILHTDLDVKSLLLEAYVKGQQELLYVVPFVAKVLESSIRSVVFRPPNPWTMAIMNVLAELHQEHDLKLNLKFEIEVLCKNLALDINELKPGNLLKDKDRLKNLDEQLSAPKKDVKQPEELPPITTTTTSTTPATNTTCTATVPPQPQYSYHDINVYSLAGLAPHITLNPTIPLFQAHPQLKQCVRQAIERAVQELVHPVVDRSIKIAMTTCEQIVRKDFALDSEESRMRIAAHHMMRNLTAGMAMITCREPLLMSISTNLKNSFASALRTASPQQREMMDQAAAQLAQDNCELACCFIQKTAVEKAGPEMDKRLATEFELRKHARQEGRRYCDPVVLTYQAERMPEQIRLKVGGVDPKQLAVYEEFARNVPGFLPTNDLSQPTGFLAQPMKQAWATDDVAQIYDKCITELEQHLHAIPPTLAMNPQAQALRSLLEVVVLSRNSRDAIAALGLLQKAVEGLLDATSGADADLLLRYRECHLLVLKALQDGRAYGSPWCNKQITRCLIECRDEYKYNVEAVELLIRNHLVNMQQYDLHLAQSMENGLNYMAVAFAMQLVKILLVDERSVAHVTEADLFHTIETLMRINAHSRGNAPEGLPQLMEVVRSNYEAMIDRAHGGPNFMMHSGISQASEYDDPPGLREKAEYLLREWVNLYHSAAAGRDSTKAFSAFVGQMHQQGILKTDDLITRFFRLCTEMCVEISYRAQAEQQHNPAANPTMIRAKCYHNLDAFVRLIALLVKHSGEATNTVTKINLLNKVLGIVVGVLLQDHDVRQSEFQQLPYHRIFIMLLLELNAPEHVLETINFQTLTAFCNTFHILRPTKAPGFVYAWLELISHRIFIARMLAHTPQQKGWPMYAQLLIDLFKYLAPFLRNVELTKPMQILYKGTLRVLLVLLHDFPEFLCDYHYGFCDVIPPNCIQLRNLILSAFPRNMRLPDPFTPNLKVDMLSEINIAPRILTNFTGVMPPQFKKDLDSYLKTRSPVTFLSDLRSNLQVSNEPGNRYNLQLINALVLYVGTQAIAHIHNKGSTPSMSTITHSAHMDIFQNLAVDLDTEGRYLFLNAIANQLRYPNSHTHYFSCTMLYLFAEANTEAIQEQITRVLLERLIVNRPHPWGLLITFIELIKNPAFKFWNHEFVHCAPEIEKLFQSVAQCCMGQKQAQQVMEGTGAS

Target: Insulin-like growth factor 2 mRNA-binding protein 2 (human (endogenous in TPC1 and CAL62)) (UniProt Q9Y6M1)
Assay: co-IP; lysates of TPC1 and CAL62 cells (Cell lysis buffer for Western and IP, Beyotime P0013, with PMSF, phosphatase and protease inhibitors); lysate precleared with rabbit IgG; antibody-conjugated Protein A/G magnetic beads, 4 h at 4 °C; three washes with IP lysis buffer; Western blot

CNOT1, scaffold subunit of the CCR4-NOT deadenylase complex (from UniProt A5YKK6 1-2376)
binding: binds
